The values below come from publication PMC7819943, “Rice protein-binding microarrays: a tool to detect cis-acting elements near promoter regions in rice”.

This is one part of the list.

The assay concerns the target T1, OsSMF1 (Oryza sativa, UniProt Q6ZLB0 1-436).
T1 sequence: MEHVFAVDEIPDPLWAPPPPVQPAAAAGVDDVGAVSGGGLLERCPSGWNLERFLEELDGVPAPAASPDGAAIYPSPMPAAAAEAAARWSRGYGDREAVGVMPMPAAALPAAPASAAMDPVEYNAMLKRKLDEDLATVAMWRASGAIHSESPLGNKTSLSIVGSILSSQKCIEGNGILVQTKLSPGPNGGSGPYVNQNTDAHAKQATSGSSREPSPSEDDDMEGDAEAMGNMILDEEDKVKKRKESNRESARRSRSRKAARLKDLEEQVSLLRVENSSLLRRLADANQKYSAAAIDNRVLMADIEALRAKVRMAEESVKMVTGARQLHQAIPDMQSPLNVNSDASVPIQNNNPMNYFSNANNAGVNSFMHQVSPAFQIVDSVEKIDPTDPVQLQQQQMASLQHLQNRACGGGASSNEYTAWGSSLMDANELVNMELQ
Briefly: protein-binding microarray (RPBM); PBS, 2% BSA, 51.3 ng/ul salmon testes DNA, 50 uM zinc acetate, 200 nM TF, 25 C, 1 h; high values mean tight binding. Particulars: protein: recombinant; tags: N-terminal polyhistidine and DsRed monomer fusion (pET32a); chain copies: 2; label: CyDye5-dUTP incorporated in the synthesized complementary strand; 3' TTTTT single-stranded linker to array surface; dsDNA, one strand shown. Put shortly:
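The binding signal is fluorescence intensity per array feature (arbitrary units). Readings came from an Axon 4000B scanner after a washed, 2% BSA-blocked, double-stranded custom Agilent array had been incubated for 1 h at 25 °C with 200 nM protein and 50 µM zinc acetate. The protein was a Ni–NTA-purified transcription factor fused N-terminally to polyhistidine and DsRed, expressed in E. coli BL21-CodonPlus.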
Turning to “CAAACAACCACAGTGAAACTGAATGGAGTAGTTCATGCCACGGAGTCACCTAGTGCAG”, the binding signal was 24400 fluorescence intensity (a.u.).
Take “GCATCGTGAGGAGGCGCTCGTCGTCGCCGGCGAAGGCTGCCGGAGTCACCTAGTGCAG”: the binding signal is 14500 fluorescence intensity (a.u.).
As for “AGCTAATTTTCTAGCAAATATACTTAAACATACGTCTATTCGGAGTCACCTAGTGCAG”, the binding signal was 32500 fluorescence intensity (a.u.).
On to “CAACTTCACAGACCTCCGACAGGCTGAAAGCAGTGGTCCACGGAGTCACCTAGTGCAG”, for which the binding signal was 3260 fluorescence intensity (a.u.).
Consider “GATGTGACAGGGATCTTAATTTTAGTCCCTGATCCAAACTCGGAGTCACCTAGTGCAG”, for which the binding signal is 3400 fluorescence intensity (a.u.).
Take “GTGTTGAAACTTTGCCACGCGCCTGTATGTTTGTAAGGATCGGAGTCACCTAGTGCAG”: the binding signal is 5300 fluorescence intensity (a.u.).
For “TGTGATTGGGCACAAGCACAACAGCGTCACCATGGATCTTCGGAGTCACCTAGTGCAG” the value was 4600 fluorescence intensity (a.u.).
For the sequence “TTCGGGTTGAAAATTGCCACGTAAGCGCTACGTTAATTCCCGGAGTCACCTAGTGCAG”, the binding signal was 12000 fluorescence intensity (a.u.).
For “GATGGAGTCAAGTCATCATCTGTTCGTAGATCAACTTCCACGGAGTCACCTAGTGCAG” the value was 4580 fluorescence intensity (a.u.).
“CCTAACAGCATGGAGCATTCATGACGTCAGCTACCACGAGCGGAGTCACCTAGTGCAG”: the binding signal is 17700 fluorescence intensity (a.u.).
For “TAGAAAACGGTTTTAACTCCTGCGTCAGCATCTACCGCTCCGGAGTCACCTAGTGCAG”, the binding signal was 13000 fluorescence intensity (a.u.).
“AAGCGGCGATCACAACTGCACGTCATGTTTTCCAAAAGAGCGGAGTCACCTAGTGCAG”: the binding signal was 4020 fluorescence intensity (a.u.).
“AGATAGGTTCTAGCTAATTCACAGTCACAGGTTCTCTTCCCGGAGTCACCTAGTGCAG”: the binding signal is 3220 fluorescence intensity (a.u.).
For “ATACAGTCATTGACAACGCATATATGTAGCTAGCACGAGACGGAGTCACCTAGTGCAG” the value was 4720 fluorescence intensity (a.u.); for “GCCGGTCGCGCCGGCGGAAACCACGACGGGGCTCTGCCTCCGGAGTCACCTAGTGCAG”, 19700 fluorescence intensity (a.u.).
“ACCAAATGTGTATGGGGTACGGATGAATCCTACACCCACGCGGAGTCACCTAGTGCAG”: the binding signal is 3760 fluorescence intensity (a.u.).
In the case of “TTCCTGACTTCCTCCTCCCTTTCTTCTCTCGCCGCCGAGACGGAGTCACCTAGTGCAG”, the binding signal was 41400 fluorescence intensity (a.u.).
Take “TTGCCTACTCATGCACCACAAAGCTTGGTGACCGAACTAGCGGAGTCACCTAGTGCAG”: the binding signal was 3210 fluorescence intensity (a.u.).
For “TCACACAACGCCACGTCACCATATGTTACGGGCAGCCATGCGGAGTCACCTAGTGCAG”, the binding signal was 17500 fluorescence intensity (a.u.).
As for “CACCTTGATCCACCTCGATCCGCTGGACGTGTGCTCGGGACGGAGTCACCTAGTGCAG”, the binding signal was 4950 fluorescence intensity (a.u.).
As to “ATCATATTAATTATTTCAAATTTACCATTTTATCATGTATCGGAGTCACCTAGTGCAG”, the binding signal is 4720 fluorescence intensity (a.u.).
With “CTAACCACTTGCTCTGACATACCGTGTGTGTACCACACCACGGAGTCACCTAGTGCAG”, the binding signal is 4060 fluorescence intensity (a.u.).
Regarding “ACAGCCTAGCTTCTCTAGCACAGCAGCATGTTCACTTCTTCGGAGTCACCTAGTGCAG”, the binding signal is 3490 fluorescence intensity (a.u.).
In the case of “AGATGTTTTAACGTTGGTCAAAGTCAAACTGCTTCAAGTTCGGAGTCACCTAGTGCAG”, the binding signal was 3560 fluorescence intensity (a.u.).
For “CTCGGTGCAGCGTCTCCCGTGTTGTCTTGTTGCTCTTGTGCGGAGTCACCTAGTGCAG” the value was 3370 fluorescence intensity (a.u.); for “TAAATTAATAAATATACATGAATCAGCTAGCTAGCGGTAACGGAGTCACCTAGTGCAG”, 3430 fluorescence intensity (a.u.).
For “TATTGATTGATTGGTTAGTACTACAGTACTGTAGGAGTGGCGGAGTCACCTAGTGCAG”, the binding signal is 29800 fluorescence intensity (a.u.).
In the case of “GATGGGCTTGTGCTGACATCATCTATACGTGCTTTGCTCCCGGAGTCACCTAGTGCAG”, the binding signal was 14500 fluorescence intensity (a.u.).
Take “ATTCCAAGCAGGTGGACCCGCGTGTCATCCCCACTCTACACGGAGTCACCTAGTGCAG”: the binding signal was 5490 fluorescence intensity (a.u.).
For “TGTCGTTGGCCTCCCTCGTCGCCATCCGTGCCGTCATGTGCGGAGTCACCTAGTGCAG” the value was 3640 fluorescence intensity (a.u.); for “ACCCGCCCACCGGCCTGGCCACACACCGCCGCCACGCTGGCGGAGTCACCTAGTGCAG”, 4800 fluorescence intensity (a.u.); for “TCTGCATGTTGGAGTAAGGCGTGAGTCAAGGCCAAATTAGCGGAGTCACCTAGTGCAG”, 3890 fluorescence intensity (a.u.).
For the sequence “CCCCGGAAGGGGCGGGGAGGGGAGGGCGGCAGCGGCGCCGCGGAGTCACCTAGTGCAG”, the binding signal was 6060 fluorescence intensity (a.u.).
In the case of “TGATTGGTTGGCTGGTTGGTTAGTTGGCGCTTTTATCGTGCGGAGTCACCTAGTGCAG”, the binding signal was 4160 fluorescence intensity (a.u.).
Take “GGGTATCCTAACACTACCCATACCCCTTCTCCCTCACTCACGGAGTCACCTAGTGCAG”: the binding signal is 3410 fluorescence intensity (a.u.).
Turning to “TAAATGGAGTGCTTTGCCTTTGCTTGCGCGTGAGCATCCACGGAGTCACCTAGTGCAG”, the binding signal is 3220 fluorescence intensity (a.u.).
As to “CCGCACCCGCATCCCTTTCCCGCAAGGCCGCAACACCGTCCGGAGTCACCTAGTGCAG”, the binding signal was 12600 fluorescence intensity (a.u.).
For “TGTTTATTTTAATTAGATGAATCATCAAATGTTTATCAAACGGAGTCACCTAGTGCAG” the value was 3690 fluorescence intensity (a.u.).
In the case of “GCCTGACCACCGTTCAACTGCGTCTGCAGTTTTATTCCTTCGGAGTCACCTAGTGCAG”, the binding signal is 4050 fluorescence intensity (a.u.).
For “CAATGTGGTTTCATTAAAGTTGTAATCAGCTCTAGATTTTCGGAGTCACCTAGTGCAG” the value was 15700 fluorescence intensity (a.u.); for “CATTTCATTGCTATGAAGGGGCCGGGTATTTGGCATGCTACGGAGTCACCTAGTGCAG”, 21400 fluorescence intensity (a.u.); for “TTTACATCTTCTCCATCTCCACGTATTGTGTGCAACAAAACGGAGTCACCTAGTGCAG”, 4290 fluorescence intensity (a.u.).
